Protein sequences, listed by entry. Tags and fused reporters are not part of them.
UniProt Q0JBA9, entry or part of it: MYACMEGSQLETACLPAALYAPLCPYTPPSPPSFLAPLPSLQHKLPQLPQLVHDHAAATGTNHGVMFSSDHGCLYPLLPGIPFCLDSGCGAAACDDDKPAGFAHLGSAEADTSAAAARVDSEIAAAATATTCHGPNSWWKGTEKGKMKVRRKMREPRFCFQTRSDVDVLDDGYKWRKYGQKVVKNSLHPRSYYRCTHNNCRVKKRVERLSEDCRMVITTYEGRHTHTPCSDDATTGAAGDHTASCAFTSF

This is one part of the list.
The sequences below were run against OsWRKY34 (Oryza sativa, UniProt Q0JBA9 1-250) (assay: protein-binding microarray (RPBM); PBS, 2% BSA, 51.3 ng/ul salmon testes DNA, 50 uM zinc acetate, 200 nM TF, 25 C, 1 h; high values mean tight binding). Conditions: protein: recombinant; tags: N-terminal polyhistidine and DsRed monomer fusion (pET32a); label: CyDye5-dUTP incorporated in the synthesized complementary strand; 3' TTTTT single-stranded linker to array surface; dsDNA, one strand shown.
Outline: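 A custom Agilent array was converted to double-stranded form by primer extension with Cy5-dUTP and blocked with 2% BSA. Protein at 200 nM in PBS with 2% BSA, salmon testes DNA and 50 µM zinc acetate was applied for 1 h at 25 °C, followed by washing. The proteins were polyhistidine–DsRed N-terminal fusions of transcription factors, expressed in E. coli BL21-CodonPlus and Ni–NTA-purified. The binding signal is per-feature fluorescence intensity (arbitrary units) from an Axon 4000B scanner.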
For “CTTTGCACTTAAAGCTTTATTTTAGTTCTGAAATCCCAATCGGAGTCACCTAGTGCAG”, the binding signal was 8260 fluorescence intensity (a.u.).
In the case of “TCGATTTTTAAGCACCACCTCACCTCATTACCCGCGCTTTCGGAGTCACCTAGTGCAG”, the binding signal is reported as 10400 fluorescence intensity (a.u.).
“ATACCAGGATCTTTTCTCCTGTCGTTACATTTTGCTTAATCGGAGTCACCTAGTGCAG” was tested, and the binding signal was 8680 fluorescence intensity (a.u.).
“TCGATTCATCCGATCCGACTCCGACCTAACCAATCCAATGCGGAGTCACCTAGTGCAG” was tested, and the binding signal was 8520 fluorescence intensity (a.u.).
In the case of “TAGGTAGGGTGGTGGCGGGCGGGCTCCCGCAGCCAGTGGCCGGAGTCACCTAGTGCAG”, the binding signal is reported as 11100 fluorescence intensity (a.u.).
“TCCGCTATACAAAAATTCTTGCGCTTCGCCACGTCAGCATCGGAGTCACCTAGTGCAG” was tested, and the binding signal was 8310 fluorescence intensity (a.u.).
With “ACCTGTTCGATGTGCTTGACCGTTTCAACGCCTAGGCCCACGGAGTCACCTAGTGCAG” the binding signal was 8240 fluorescence intensity (a.u.).
With “AGGAAGGGAGGGTAATATACCATTAAACTTCGTTTTTATTCGGAGTCACCTAGTGCAG” the binding signal was 8220 fluorescence intensity (a.u.).
For “CCCCTGTCCTGAGCTATTATTCGCAACCATTGACTAATTTCGGAGTCACCTAGTGCAG”, the binding signal was 9590 fluorescence intensity (a.u.).
For “ACATTTACTATTTGTCTTATTTAAATTTTTTTATGATTAACGGAGTCACCTAGTGCAG”, the binding signal was 8760 fluorescence intensity (a.u.).
With “GCCTCCGCCGCCGCCGCCGCCGCCGCGTCGTCTCCGACCGCGGAGTCACCTAGTGCAG” the binding signal was 9710 fluorescence intensity (a.u.).
“CTGCTGCATCTTGTTGGGAACTTTTCCTCTCCTCTCCTCTCGGAGTCACCTAGTGCAG” was tested, and the binding signal was 8940 fluorescence intensity (a.u.).
In the case of “GATTTGCTTCTTCTTGGTCTATAAAATGCTCGCATTGTCTCGGAGTCACCTAGTGCAG”, the binding signal is reported as 8800 fluorescence intensity (a.u.).
For “ATTGTCTTTCCTGTACAACATGTCACCAGCATAAATGGTCCGGAGTCACCTAGTGCAG”, the binding signal was 9020 fluorescence intensity (a.u.).
For “GCTCTACTAGTACTACTATTGATCGAGTCAATGTAACGATCGGAGTCACCTAGTGCAG”, the binding signal was 8390 fluorescence intensity (a.u.).
With “CACATATTAATGGTTTTCTTGTTTTGCATGTCCACTTTTACGGAGTCACCTAGTGCAG” the binding signal was 11100 fluorescence intensity (a.u.).
With “CAACTTTGGCTTCACTATCAGCTGCACGCTCCCGCCCTTCCGGAGTCACCTAGTGCAG” the binding signal was 9220 fluorescence intensity (a.u.).
With “TATATATCAAATCCTGACCATGTGCGTATGTTACCCTCAACGGAGTCACCTAGTGCAG” the binding signal was 8140 fluorescence intensity (a.u.).
With “AAAGAGATTTATTATACGTCTGCTCCTGTATTTCCAAAAGCGGAGTCACCTAGTGCAG” the binding signal was 8100 fluorescence intensity (a.u.).
In the case of “AACATTGATGAGAATTGAAATCATTTCGTTGCTCTAATCTCGGAGTCACCTAGTGCAG”, the binding signal is reported as 8340 fluorescence intensity (a.u.).
With “CATGCGTACTCATCTTCATCACTACCGCTTGAGCTCAAGTCGGAGTCACCTAGTGCAG” the binding signal was 8690 fluorescence intensity (a.u.).
For “TTGATGTTTCTTTTCCTGGCGTTATCGATGTAAACATGGCCGGAGTCACCTAGTGCAG”, the binding signal was 9190 fluorescence intensity (a.u.).
For “CTGGGTCATATGTATCATCTGTGTTTGTTTCCATATGAATCGGAGTCACCTAGTGCAG”, the binding signal was 8950 fluorescence intensity (a.u.).
For “GTCGAGCTTGTCGCCTCGCCACGGTCTGCTCCCGGGCTCGCGGAGTCACCTAGTGCAG”, the binding signal was 8460 fluorescence intensity (a.u.).
With “CCTGTTTTCTTCACACGTTATTTTGTGTTATTCCCTGTTTCGGAGTCACCTAGTGCAG” the binding signal was 13200 fluorescence intensity (a.u.).
In the case of “CGCGCCATTGCCATCGTTTCACCCTACATATAAACCGCATCGGAGTCACCTAGTGCAG”, the binding signal is reported as 9050 fluorescence intensity (a.u.).
For “TTTGTGGGTGTTTGGTGTGCAGGTGTACATGATTGTTTGCCGGAGTCACCTAGTGCAG”, the binding signal was 8910 fluorescence intensity (a.u.).
In the case of “GCGCTCTTTTGGGCCAGAGGCCTATTCCCACTTGACTTCCCGGAGTCACCTAGTGCAG”, the binding signal is reported as 8430 fluorescence intensity (a.u.).
With “GACCACCTCGGCCACCACTCTGCCCGCGGCCCTCACCCAGCGGAGTCACCTAGTGCAG” the binding signal was 8410 fluorescence intensity (a.u.).
With “CCATTCACCTCTCCGCACGCACCCACCCACCCACCAACCGCGGAGTCACCTAGTGCAG” the binding signal was 10300 fluorescence intensity (a.u.).
For “CCGTCCGATTTTTCTGCACGCGATCCTGACCGTGTCCAGACGGAGTCACCTAGTGCAG”, the binding signal was 8190 fluorescence intensity (a.u.).
In the case of “GGTCCAGTTGCACCTCTTCGCATTCAGCTTCCTCTACAGCCGGAGTCACCTAGTGCAG”, the binding signal is reported as 8180 fluorescence intensity (a.u.).
In the case of “GGTCTCCACCTCCTCCGCCTTCACCACCCCGTCGTCGTCACGGAGTCACCTAGTGCAG”, the binding signal is reported as 8260 fluorescence intensity (a.u.).
“TTAAATCCACCATTAAATATTTTTATATTATATCTTTTGTCGGAGTCACCTAGTGCAG” was tested, and the binding signal was 8140 fluorescence intensity (a.u.).
With “GTATTTTAGAATGTTGCACGTGGTGTGTTTTTTGGGATGTCGGAGTCACCTAGTGCAG” the binding signal was 9640 fluorescence intensity (a.u.).
In the case of “CTGGTCCCATGGATTGCCTATAGCTGATTAATTGATTATACGGAGTCACCTAGTGCAG”, the binding signal is reported as 9560 fluorescence intensity (a.u.).
For “AGAGAGACGCAATTGACAGCATTTTGTAAGCATTTGAAGCCGGAGTCACCTAGTGCAG”, the binding signal was 8290 fluorescence intensity (a.u.).
“TTTTTCAACCTCCGTTTATATACAACGCACGATCACATATCGGAGTCACCTAGTGCAG” was tested, and the binding signal was 8560 fluorescence intensity (a.u.).
“TATTTTTAATTCCGAATTTCAGTTATTTCCTAATTGTATTCGGAGTCACCTAGTGCAG” was tested, and the binding signal was 9240 fluorescence intensity (a.u.).
“TGGCTTCCTGCTGACATAACCCAAAGCTTTCACTGTCCTTCGGAGTCACCTAGTGCAG” was tested, and the binding signal was 8250 fluorescence intensity (a.u.).
In the case of “CCCTGGCGCGCCCAATCCCACACTCATATATACACACTTCCGGAGTCACCTAGTGCAG”, the binding signal is reported as 10100 fluorescence intensity (a.u.).
“CCCAGGTGTGCGCGGCTCTCTTCTCCTCCATCGGCGACGACGGAGTCACCTAGTGCAG” was tested, and the binding signal was 8720 fluorescence intensity (a.u.).

From article PMC7819943, “Rice protein-binding microarrays: a tool to detect cis-acting elements near promoter regions in rice”
